Assay results taken from article PMC8605242.
No constants are given. Whether binding was seen depends on the method and setting. Binding seen in cells or lysates may run through a third protein. Some entries that bind do so weakly or less than the wild type. For part of these data: Sequences can lack the tags named with a protein.

B1: Magmas-1, expressed in yeast (protein, UniProt I3L3T0 1-145)
chain: MRWGQSASGSSVKFTRLPACPAKYLAQIIVMGVQVVGRAFARALRQEFAASRAAADARGRAGHRSAAASNLSGLSLQEAQQILNVSKLSPEEVQKNYEHLFKVNDKSVGGSFYLQSKVVRAKERLDEELKIQAQEDREKGQMPHT
B2: Pam18 (protein, UniProt Q07914 1-168)
chain: MSSQSNTGNSIEAPQLPIPGQTNGSANVTVDGAGVNVGIQNGSQGQKTGMDLYFDQALNYMGEHPVITGFGAFLTLYFTAGAYKSISKGLNGGKSTTAFLKGGFDPKMNSKEALQILNLTENTLTKKKLKEVHRKIMLANHPDKGGSPFLATKINEAKDFLEKRGISK
B3: Magmas (Mitochondria-associated granulocyte-macrophage colony-stimulating factor signaling molecule), expressed in yeast (protein, UniProt Q9Y3D7 1-125)
chain: MAKYLAQIIVMGVQVVGRAFARALRQEFAASRAAADARGRAGHRSAAASNLSGLSLQEAQQILNVSKLSPEEVQKNYEHLFKVNDKSVGGSFYLQSKVVRAKERLDEELKIQAQEDREKGQMPHT
B4: Pam16 (protein, UniProt P42949 1-149)
chain: MAHRAFIQVIITGTQVFGKAFAEAYRQAASQSVKQGATNASRRGTGKGEYGGITLDESCKILNIEESKGDLNMDKINNRFNYLFEVNDKEKGGSFYLQSKVYRAAERLKWELAQREKNAKAKAGDASTAKPPPNSTNSSGADNSASSNQ
B5: Tim23 (human) (protein, UniProt O14925 1-209)
chain: MEGGGGSGNKTTGGLAGFFGAGGAGYSHADLAGVPLTGMNPLSPYLNVDPRYLVQDTDEFILPTGANKTRGRFELAFFTIGGCCMTGAAFGAMNGLRLGLKETQNMAWSKPRNVQILNMVTRQGALWANTLGSLALLYSAFGVIIEKTRGAEDDLNTVAAGTMTGMLYKCTGGLRGIARGGLTGLTLTSLYALYNNWEHMKGSLLQQSL

Tests used:
[1] = molecular target: T1, Tim23-3HA (S. cerevisiae) (UniProt P32897); experiment: co-IP; 2 mg yeast mitochondria from Tim23-3HA strains expressing Pam16, Magmas, Magmas-1 or Magmas-2 lysed in 25 mM Tris-HCl pH 7.5, 10% glycerol, 80 mM KCl, 5 mM EDTA, 1 mM PMSF, 1% digitonin; anti-HA antibody on protein G Sepharose, 3 h, 4 °C; washes with 0.5% digitonin; immunoblot
T1 sequence: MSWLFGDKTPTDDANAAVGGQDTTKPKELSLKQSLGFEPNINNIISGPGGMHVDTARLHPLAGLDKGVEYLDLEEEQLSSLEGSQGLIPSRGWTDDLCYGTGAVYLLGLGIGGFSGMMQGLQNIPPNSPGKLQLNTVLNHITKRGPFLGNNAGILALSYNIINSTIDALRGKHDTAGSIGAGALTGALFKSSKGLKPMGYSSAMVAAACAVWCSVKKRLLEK

[2] = molecular target: T2, hexahistidine tagged Magmas (human) (UniProt Q9Y3D7); experiment: pull-down; hexahistidine tagged Magmas variants on Ni-NTA beads; lysate of 2 mg HEK293T mitochondria in 25 mM HEPES-KOH pH 7.5, 80 mM KCl, 5 mM EDTA, 20 mM imidazole, 10% glycerol, 1 mM PMSF, 0.5% NP-40; 12 h, 4 °C; washes with 0.25% NP-40; immunoblot; only the target purified
T2 sequence: B3 chain

[3] = molecular target: T3, hexahistidine tagged Magmas-1 (human) (UniProt I3L3T0); experiment: as above
T3 sequence: B1 chain

Binder	binding [1]	binding [2]	binding [3]
B1	binds	–	–
B2	binds	–	–
B3	binds	–	–
B4	binds	–	–
B5	–	binds	binds
